The target in this test is T1, Growth and Differentiation Factor-11 (GDF11) (UniProt O95390 299-407).
T1 sequence (looked up): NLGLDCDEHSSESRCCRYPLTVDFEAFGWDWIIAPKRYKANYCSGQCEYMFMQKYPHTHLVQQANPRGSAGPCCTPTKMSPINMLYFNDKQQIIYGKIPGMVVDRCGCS
The test is described as follows: Biacore SPR; ActRIIB-Fc captured by anti-hFc antibody, ligand injected.

No constants are given. Whether binding was seen depends on the method and setting. Some entries that bind do so weakly or less than the wild type.

B1: ActRIIB(A24N 20-134)-hFc (Fc fusion, not shown: a dimerising Fc or GST)
chain: GRGENETRECIYYNANWELERTNQSGLERCEGEQDKRLHCYASWRNSSGTIELVKKGCWLDDFNCYDRQECVATEENPQVYFCCCEGNFCNERFTHLPEAGGPEVTYEPPPTAPT
In the case of B1, the binding result was “binds”.
